From the supplement of paper PMC10849652
Some of the results follow.

Sequences of proteins named here, by UniProt entry; tags and fusion partners are left off. A change or cut given only in a name is not applied to a line headed by its entry.
UniProt Q9UJY5: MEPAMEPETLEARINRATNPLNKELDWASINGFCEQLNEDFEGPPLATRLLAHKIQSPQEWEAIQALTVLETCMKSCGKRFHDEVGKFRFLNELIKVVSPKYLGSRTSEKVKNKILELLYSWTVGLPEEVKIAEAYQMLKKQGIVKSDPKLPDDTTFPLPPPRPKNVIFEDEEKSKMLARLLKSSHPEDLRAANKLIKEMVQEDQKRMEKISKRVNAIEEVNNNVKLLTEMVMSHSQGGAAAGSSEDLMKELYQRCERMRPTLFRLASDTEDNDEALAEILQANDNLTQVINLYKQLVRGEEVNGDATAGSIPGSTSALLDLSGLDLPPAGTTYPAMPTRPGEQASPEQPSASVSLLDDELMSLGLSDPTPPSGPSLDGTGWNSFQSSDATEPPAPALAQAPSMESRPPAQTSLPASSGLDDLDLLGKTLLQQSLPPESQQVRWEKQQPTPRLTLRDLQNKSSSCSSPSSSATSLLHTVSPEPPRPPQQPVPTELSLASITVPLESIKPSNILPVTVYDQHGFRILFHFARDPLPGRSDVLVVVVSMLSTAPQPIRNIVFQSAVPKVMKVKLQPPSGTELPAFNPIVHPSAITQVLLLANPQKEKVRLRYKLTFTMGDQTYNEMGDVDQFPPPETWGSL
UniProt Q8N9F7: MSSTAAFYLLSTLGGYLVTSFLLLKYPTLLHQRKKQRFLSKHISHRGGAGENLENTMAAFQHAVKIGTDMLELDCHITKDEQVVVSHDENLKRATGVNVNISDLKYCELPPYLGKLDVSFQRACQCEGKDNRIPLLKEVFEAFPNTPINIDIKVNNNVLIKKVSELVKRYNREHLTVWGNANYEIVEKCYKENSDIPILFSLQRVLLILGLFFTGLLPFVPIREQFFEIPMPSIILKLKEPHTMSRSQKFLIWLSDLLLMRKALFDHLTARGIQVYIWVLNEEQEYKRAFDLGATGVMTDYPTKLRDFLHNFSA
UniProt Q96CU9: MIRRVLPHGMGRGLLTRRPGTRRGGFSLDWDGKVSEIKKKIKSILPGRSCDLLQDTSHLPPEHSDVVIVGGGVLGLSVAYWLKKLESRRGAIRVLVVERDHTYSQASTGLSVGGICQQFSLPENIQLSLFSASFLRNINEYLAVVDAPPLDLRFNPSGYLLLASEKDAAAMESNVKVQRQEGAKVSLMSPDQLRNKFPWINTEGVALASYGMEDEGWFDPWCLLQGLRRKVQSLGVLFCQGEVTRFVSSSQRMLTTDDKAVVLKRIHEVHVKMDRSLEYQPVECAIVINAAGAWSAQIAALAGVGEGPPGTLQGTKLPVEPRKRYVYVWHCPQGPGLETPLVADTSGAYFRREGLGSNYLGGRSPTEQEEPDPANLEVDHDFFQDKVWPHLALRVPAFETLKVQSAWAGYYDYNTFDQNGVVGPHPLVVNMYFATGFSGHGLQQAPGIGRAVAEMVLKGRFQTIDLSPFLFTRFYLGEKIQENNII
UniProt Q96I24: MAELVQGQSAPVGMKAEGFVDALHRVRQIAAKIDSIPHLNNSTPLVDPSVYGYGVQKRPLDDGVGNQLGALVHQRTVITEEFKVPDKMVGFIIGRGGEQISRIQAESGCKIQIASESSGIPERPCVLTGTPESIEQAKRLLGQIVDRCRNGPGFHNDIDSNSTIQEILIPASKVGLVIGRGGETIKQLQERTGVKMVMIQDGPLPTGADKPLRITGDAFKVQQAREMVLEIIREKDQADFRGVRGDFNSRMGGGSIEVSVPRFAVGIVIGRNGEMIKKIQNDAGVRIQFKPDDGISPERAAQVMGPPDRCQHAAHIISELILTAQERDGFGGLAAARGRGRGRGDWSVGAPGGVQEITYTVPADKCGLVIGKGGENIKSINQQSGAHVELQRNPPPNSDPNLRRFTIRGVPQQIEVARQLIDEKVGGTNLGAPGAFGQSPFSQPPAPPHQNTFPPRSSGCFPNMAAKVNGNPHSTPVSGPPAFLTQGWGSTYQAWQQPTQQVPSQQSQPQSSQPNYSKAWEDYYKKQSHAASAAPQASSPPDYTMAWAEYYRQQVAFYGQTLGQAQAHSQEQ
UniProt Q9UJ14: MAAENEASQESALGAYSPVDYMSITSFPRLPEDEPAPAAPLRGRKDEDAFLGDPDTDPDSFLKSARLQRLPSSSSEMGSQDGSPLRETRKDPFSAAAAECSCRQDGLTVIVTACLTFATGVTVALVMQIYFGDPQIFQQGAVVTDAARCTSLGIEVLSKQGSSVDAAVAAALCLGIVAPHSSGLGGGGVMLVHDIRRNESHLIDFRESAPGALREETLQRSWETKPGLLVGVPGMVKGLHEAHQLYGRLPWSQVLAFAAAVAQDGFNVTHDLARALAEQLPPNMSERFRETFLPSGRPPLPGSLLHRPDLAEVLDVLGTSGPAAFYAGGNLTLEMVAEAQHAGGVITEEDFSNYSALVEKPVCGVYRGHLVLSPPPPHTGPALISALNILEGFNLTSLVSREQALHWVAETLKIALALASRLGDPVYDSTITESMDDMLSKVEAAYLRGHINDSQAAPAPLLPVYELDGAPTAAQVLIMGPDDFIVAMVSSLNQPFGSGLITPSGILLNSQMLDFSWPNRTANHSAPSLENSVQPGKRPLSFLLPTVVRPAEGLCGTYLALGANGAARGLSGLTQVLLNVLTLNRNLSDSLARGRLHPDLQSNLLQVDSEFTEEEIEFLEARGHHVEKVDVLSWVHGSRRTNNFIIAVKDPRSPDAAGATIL
UniProt Q9H3K2: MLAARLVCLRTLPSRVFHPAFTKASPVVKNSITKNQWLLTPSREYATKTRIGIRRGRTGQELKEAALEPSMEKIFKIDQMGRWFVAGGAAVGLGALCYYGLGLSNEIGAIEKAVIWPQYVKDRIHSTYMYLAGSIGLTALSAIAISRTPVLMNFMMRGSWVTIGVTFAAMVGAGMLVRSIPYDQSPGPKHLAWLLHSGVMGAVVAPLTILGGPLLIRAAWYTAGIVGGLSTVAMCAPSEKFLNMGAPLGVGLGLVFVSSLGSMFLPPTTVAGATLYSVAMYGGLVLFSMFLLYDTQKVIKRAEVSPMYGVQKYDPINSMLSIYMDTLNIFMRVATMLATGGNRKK
UniProt P55789: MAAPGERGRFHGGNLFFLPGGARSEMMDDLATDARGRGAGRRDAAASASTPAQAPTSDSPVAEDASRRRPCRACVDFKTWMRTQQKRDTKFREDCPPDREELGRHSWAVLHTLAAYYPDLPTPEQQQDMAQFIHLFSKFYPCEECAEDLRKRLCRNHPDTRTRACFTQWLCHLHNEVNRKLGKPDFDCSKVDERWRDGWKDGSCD
UniProt Q8TB36: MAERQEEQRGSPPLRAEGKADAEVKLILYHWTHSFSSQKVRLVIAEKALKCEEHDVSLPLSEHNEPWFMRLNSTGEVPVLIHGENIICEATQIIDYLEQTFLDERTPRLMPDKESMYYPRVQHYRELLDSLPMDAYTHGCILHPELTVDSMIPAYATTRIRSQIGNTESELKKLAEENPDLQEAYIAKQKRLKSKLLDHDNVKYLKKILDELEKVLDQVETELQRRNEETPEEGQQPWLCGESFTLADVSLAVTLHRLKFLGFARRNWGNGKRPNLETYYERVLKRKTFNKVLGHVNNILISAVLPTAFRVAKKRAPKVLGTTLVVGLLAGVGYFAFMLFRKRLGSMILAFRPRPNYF
UniProt Q8WXD5: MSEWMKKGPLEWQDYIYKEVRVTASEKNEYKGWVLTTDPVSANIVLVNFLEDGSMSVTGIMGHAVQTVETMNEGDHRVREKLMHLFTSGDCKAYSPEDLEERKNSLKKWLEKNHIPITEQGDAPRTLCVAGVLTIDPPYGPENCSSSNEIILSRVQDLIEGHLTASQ
UniProt P30047: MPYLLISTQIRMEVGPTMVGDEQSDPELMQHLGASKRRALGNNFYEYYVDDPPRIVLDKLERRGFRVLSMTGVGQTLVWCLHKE
UniProt P41250: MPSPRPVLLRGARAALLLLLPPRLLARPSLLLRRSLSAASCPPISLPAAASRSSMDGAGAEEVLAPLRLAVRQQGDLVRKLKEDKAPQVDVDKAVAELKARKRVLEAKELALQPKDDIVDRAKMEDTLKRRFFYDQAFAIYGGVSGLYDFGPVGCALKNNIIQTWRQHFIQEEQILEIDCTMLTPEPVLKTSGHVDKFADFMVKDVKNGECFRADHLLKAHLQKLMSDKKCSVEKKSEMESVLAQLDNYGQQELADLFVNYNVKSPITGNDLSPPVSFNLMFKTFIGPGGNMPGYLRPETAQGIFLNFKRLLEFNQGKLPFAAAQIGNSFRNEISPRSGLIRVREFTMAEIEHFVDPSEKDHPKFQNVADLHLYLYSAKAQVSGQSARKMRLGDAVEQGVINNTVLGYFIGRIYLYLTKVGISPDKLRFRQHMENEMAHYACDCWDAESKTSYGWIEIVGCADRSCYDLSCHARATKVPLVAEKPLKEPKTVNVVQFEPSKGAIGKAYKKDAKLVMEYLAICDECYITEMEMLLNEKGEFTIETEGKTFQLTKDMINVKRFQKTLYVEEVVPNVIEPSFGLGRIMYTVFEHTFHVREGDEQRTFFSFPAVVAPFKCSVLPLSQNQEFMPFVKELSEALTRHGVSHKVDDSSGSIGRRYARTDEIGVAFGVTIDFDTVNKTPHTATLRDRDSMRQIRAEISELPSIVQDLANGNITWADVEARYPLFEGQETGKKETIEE
UniProt P23434: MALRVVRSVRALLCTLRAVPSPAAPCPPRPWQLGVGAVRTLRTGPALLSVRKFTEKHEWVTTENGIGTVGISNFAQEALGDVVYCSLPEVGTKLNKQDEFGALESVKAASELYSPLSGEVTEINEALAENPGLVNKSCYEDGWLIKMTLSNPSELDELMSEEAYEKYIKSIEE
UniProt Q9BQS8: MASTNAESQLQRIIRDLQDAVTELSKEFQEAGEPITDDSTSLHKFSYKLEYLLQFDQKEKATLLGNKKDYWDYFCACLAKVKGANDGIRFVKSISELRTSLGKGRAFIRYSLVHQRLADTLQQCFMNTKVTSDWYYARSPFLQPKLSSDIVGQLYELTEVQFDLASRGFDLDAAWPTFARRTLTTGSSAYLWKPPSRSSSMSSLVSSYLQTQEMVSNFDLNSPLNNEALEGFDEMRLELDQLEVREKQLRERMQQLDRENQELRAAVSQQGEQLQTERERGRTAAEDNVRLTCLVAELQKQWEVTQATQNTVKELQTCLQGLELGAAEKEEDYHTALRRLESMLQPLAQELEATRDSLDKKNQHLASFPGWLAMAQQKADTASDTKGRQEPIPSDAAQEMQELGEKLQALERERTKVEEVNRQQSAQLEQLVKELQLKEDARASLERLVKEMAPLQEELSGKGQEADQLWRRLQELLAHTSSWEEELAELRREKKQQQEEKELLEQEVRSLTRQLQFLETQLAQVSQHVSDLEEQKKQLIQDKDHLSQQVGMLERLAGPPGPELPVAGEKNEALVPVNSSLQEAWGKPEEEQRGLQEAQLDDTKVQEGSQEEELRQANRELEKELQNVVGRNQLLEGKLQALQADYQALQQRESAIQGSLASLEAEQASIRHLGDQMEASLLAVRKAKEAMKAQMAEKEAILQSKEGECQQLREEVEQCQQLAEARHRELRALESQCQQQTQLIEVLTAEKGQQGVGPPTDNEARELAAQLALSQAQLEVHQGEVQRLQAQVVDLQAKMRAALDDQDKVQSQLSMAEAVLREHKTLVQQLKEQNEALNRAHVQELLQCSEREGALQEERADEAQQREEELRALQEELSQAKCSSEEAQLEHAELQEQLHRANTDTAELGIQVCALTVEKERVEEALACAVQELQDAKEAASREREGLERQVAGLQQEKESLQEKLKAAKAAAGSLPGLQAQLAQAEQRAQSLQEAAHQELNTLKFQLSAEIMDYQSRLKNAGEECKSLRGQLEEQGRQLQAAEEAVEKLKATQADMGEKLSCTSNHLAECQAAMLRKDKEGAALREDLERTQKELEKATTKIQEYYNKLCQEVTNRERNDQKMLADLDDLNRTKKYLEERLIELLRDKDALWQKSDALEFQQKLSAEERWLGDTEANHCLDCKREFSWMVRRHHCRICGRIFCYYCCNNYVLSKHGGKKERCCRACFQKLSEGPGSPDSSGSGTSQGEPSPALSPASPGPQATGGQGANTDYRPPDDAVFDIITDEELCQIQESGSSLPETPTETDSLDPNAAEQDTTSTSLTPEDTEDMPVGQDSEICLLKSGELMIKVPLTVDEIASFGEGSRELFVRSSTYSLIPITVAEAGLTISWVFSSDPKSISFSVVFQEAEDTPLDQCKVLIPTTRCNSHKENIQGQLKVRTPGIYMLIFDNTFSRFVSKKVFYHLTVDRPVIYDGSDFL
UniProt Q9NY12: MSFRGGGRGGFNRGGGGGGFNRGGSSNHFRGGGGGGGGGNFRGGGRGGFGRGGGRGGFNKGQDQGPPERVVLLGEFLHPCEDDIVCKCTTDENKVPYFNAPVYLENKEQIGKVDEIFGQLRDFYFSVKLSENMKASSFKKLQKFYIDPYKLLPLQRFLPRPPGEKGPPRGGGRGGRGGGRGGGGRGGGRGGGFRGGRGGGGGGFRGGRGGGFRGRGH

Compound: C1=CC2=NC=CN=C2C=C1/C=C/3\C(=O)NC(=O)S3
Test: log2 fold change, soluble protein after heating vs DMSO (PISA); higher = thermal stabilisation; K562 cells, 10 uM, 30 min; active = over 0.2 and 3.5 SD of the protein, either way, in both replicates (recomputed)
Procedure, shortened: (§1)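 K562 cells at 2×10^6 cells/mL were treated for 30 min with 10 μM compound, and aliquots were heated for 3 min over 48°C-58°C before pooling. Extraction used PBS with 0.5% NP-40 at 4°C, and soluble protein was the supernatant after 21,000xg for 90 min, measured by TMTpro 16plex LC-MS/MS with channel sums equalised. Thermal stability values, relative to control samples and from duplicates, are log2 fold changes.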

log2 fold change, inactive:
GGA1 isoform 6 (UniProt Q9UJY5) 0.014, GDPD1 (UniProt Q8N9F7) 0.01, FOXRED1 (UniProt Q96CU9) 0.011, FUBP3 (UniProt Q96I24) 0.069, GGT7 (UniProt Q9UJ14) -0.004, GHITM (UniProt Q9H3K2) 0.033, GFER (UniProt P55789) 0.021, GADD45GIP1 (UniProt Q8TAE8) -0.006, GDAP1 (UniProt Q8TB36) 0.048

Compound: C1=CC=C(C=C1)C2=NC(=C(N2)C3=CC=NC=C3)C4=CC(=C(C=C4)Cl)O
Test: as above
Procedure, shortened: as §1

log2 fold change, inactive:
GALNT7 (UniProt Q86SF2) -0.018, GEMIN6 (UniProt Q8WXD5) 0.125, GBF1 (UniProt Q92538) -0.036, GCHFR (UniProt P30047) -0.04, GARS1 (UniProt P41250) -0.028, GDE1 (UniProt Q9NZC3) -0.029, GALNT6 (UniProt Q8NCL4) 0.045, GGCT (UniProt O75223) 0.009, FSCN1 (UniProt Q16658) 0.03, GCSH (UniProt P23434) -0.038, G6PD isoform 2 (UniProt P11413) 0.033, FYCO1 isoform 4 (UniProt Q9BQS8) 0.012, FOXJ3 (UniProt Q9UPW0) 0.101, GAR1 (UniProt Q9NY12) -0.046, FUCA1 (UniProt P04066) -0.004, GATD1 (UniProt Q8NB37) -0.01, GAMT (UniProt Q14353) 0.049, GCAT isoform 2 (UniProt O75600) -0.121, FRYL (UniProt O94915) -0.015, GGT2 isoform 3 (UniProt P36268) -0.04, FUT8 (UniProt Q9BYC5) -0.004, GDI2 (UniProt P50395) -0.01, FXR2 (UniProt P51116) -0.11, GGA1 isoform 6 (UniProt Q9UJY5) -0.039, GDPD1 (UniProt Q8N9F7) 0.048, FOXRED1 (UniProt Q96CU9) 0.039, FUBP3 (UniProt Q96I24) -0.017, GGT7 (UniProt Q9UJ14) -0.018, GHITM (UniProt Q9H3K2) 0.02, GFER (UniProt P55789) -0.142, GADD45GIP1 (UniProt Q8TAE8) -0.011, GDAP1 (UniProt Q8TB36) 0.111

Compound: C1=CC=C2C(=C1)C3=NNC4=CC=CC(=C43)C2=O
Test: as above
Procedure, shortened: as §1

log2 fold change, inactive:
GALNT7 (UniProt Q86SF2) 0.009, GEMIN6 (UniProt Q8WXD5) -0.012, GBF1 (UniProt Q92538) 0.033, GCHFR (UniProt P30047) 0.085, GARS1 (UniProt P41250) -0.016, GDE1 (UniProt Q9NZC3) -0.023, GALNT6 (UniProt Q8NCL4) -0.161, GGCT (UniProt O75223) -0.009, FSCN1 (UniProt Q16658) 0.036, GCSH (UniProt P23434) -0.007, G6PD isoform 2 (UniProt P11413) 0.006, FYCO1 isoform 4 (UniProt Q9BQS8) 0.041, FOXJ3 (UniProt Q9UPW0) 0.019, GAR1 (UniProt Q9NY12) -0.003, FUCA1 (UniProt P04066) 0.044, GATD1 (UniProt Q8NB37) 0.047, GAMT (UniProt Q14353) -0.073, GCAT isoform 2 (UniProt O75600) -0.092, FRYL (UniProt O94915) 0.001, GGT2 isoform 3 (UniProt P36268) -0.042, FUT8 (UniProt Q9BYC5) -0.038, GDI2 (UniProt P50395) 0.025, FXR2 (UniProt P51116) -0.029, GGA1 isoform 6 (UniProt Q9UJY5) -0.016, GDPD1 (UniProt Q8N9F7) -0.018, FOXRED1 (UniProt Q96CU9) 0.085, FUBP3 (UniProt Q96I24) 0.002, GGT7 (UniProt Q9UJ14) -0.01, GHITM (UniProt Q9H3K2) 0.028, GFER (UniProt P55789) -0.029, GADD45GIP1 (UniProt Q8TAE8) 0.09, GDAP1 (UniProt Q8TB36) 0.135
